Results reported in patent US20230303676A1.
These are yes or no findings as the source states them, for the method shown. Some results given as binding are weak or reduced against the parent protein; the word gives no strength.

Target: netrin-1 (endogenous, from human HepaRG cells and primary human hepatocytes) (human) (UniProt O95631)
Assay: immunoprecipitation with NP137 on Protein A magnetic beads, then Western blot; endogenous netrin-1 of primary human hepatocytes

B1: NP137 humanized anti-netrin-1 antibody (antibody, V domains shown)
VH: QVQLQQSGPGLVKPSQTLSLTCAISGYTFTSYNMHWVRQATGQGLEWMGAIYPGNGDTSYNQKFKGRLTISKDTSKNQVVLTMTNMDPVDTATYYCARGGTGFAYWGQG
VL: DIQMTQSPSSLSASVGDRVTITCKASQSVSNDVAWYQQKPGQAPRLLIYYASNRYTGIPPRFSGSGYGTDFTLTINNIESEDAAYYFCQQDYSSPWTFGQG
For B1, which binding is on record?
The binding was “binds”.
